Results from PubChem BioAssay AID540276 (National Center for Advancing Translational Sciences (NCATS), 2011).
In all, about 300,000 compounds went through this assay and about 5,400 (1.8%) were called active. The inconclusive results got no clear call from the source; some entries with a clear call stand among them for comparison. The call rests on the fitted dose curve; tested in HEK293 cells. Potencies of inconclusive entries are doubtful fits and often do not repeat.
Potency means the concentration at half of the fitted maximal effect.

Assay: qHTS for inhibitors of binding or entry into cells for Marburg Virus
Conditions: Marburg virus pseudotyped entry inhibition, cell reporter; series mostly up to 37.8 µM
In the case of `Cc1oc(-c2ccccc2F)nc1CS(=O)(=O)CC(=O)NCCCN1CC(C)CC(C)C1` (centres undefined), the Potency is reported as inconclusive: 35.5 µM [inhibitor, single point].
In the case of `CCCC(=O)Nc1ccc(S(=O)(=O)N2CCCC2)cc1`, the Potency is reported as “inactive”.
In the case of `O=C(Nc1cccc2ccccc12)C12CC3CC(C1)CC(n1cnc([N+](=O)[O-])n1)(C3)C2`, the Potency is reported as inconclusive: 11.2 µM [inhibitor, partial curve, poor fit].
For `COc1ccnc(Oc2ccccc2)c1C(=O)N/C=N/OCc1ccccc1`, the Potency was inconclusive: 35.5 µM [inhibitor, single point].
For `N#CC1=C(SCC(=O)Nc2nccs2)NC(=O)CC1c1ccccc1` (centres undefined), the Potency was “inactive”.
With `COCCN1CCN(C(=O)c2ccc3oc(CCc4ccccc4)nc3c2)CC1` the Potency was “inactive”.
For `Nc1c(S(=O)(=O)c2ccccc2)c2nc3ccccc3nc2n1Cc1ccco1`, the Potency was inconclusive: 16.4 µM [inhibitor, partial curve, poor fit].
With `O=C(c1ccc2nc(-c3ccco3)c(-c3ccco3)nc2c1)N1CCN(c2ncccn2)CC1` the Potency was inconclusive: 3.55 µM [activator, single point].
With `CCn1c(O)c(N=NC(=O)c2cccs2)c2ccccc21` the Potency was inconclusive: 2.51 µM [inhibitor, single point].
For `COC(=O)c1c(-c2cccnc2)csc1NC(=O)c1cc(C)on1`, the Potency was inconclusive: 2.31 µM [activator, partial curve, poor fit].
In the case of `COc1ccc(NC(=O)COC(=O)C2CCN(S(=O)(=O)c3ccccc3)CC2)cc1Cl`, the Potency is reported as inconclusive: 10 µM [inhibitor, partial curve, poor fit].
In the case of `CC1(C)Cc2c(sc3nc(-c4cc5ccccc5o4)n(N)c(=O)c23)CO1`, the Potency is reported as inconclusive: 29.1 µM [inhibitor, single point].
In the case of `COc1ccc(/C(O)=C/c2nc3ccc(C(=O)NCCc4cccc(C)c4)cc3[nH]c2=O)cc1OC`, the Potency is reported as inconclusive: 8.2 µM [activator, partial curve, poor fit].
In the case of `CCC(C)c1ccccc1NC(=O)COC(=O)c1ccc2[nH]c3c(c2c1)CCCC3` (centres undefined), the Potency is reported as active: 2.24 µM.
For `COc1ccc(C=C(C#N)c2ccc(OC)cc2)cc1`, the Potency was active: 7.94 µM.
With `c1ccc(-c2csc(-n3cccn3)n2)cc1` the Potency was “inactive”.
In the case of `Cc1sc(NC(=O)c2ccco2)c(CN2CCN(c3ccccc3)CC2)c1C`, the Potency is reported as inconclusive: 5.17 µM [inhibitor, partial curve, poor fit].
In the case of `O=C(OCC(=O)N1CCCc2ccccc21)c1ccccc1NCCO`, the Potency is reported as “inactive”.
In the case of `CCC(=O)Nc1cccc(NC(=S)NC(=O)c2ccccc2Cl)c1`, the Potency is reported as inconclusive: 31.6 µM [activator, single point].
For `Cc1ccc(C2CC(c3cccs3)=NN2C(=O)c2ccco2)o1` (centres undefined), the Potency was inconclusive: 4.47 µM [inhibitor, full curve, poor fit].
In the case of `CC(C)OCCCNC(=O)NC12CC3CC(CC(C3)C1)C2`, the Potency is reported as “inactive”.
With `O=C(CSc1oc(-c2ccco2)nc1S(=O)(=O)c1ccc(Br)cc1)c1ccc(Cl)cc1` the Potency was “inactive”.
With `COc1ccc(S(=O)(=O)NCCN2CCOCC2)c(C)c1C` the Potency was “inactive”.
With `COc1cccc(-c2csc(N3CCN(C(=O)Nc4ccc(F)cc4)CC3)n2)c1` the Potency was inconclusive: 9.2 µM [inhibitor, partial curve, poor fit].
With `COc1cc(C(=O)Nc2cc(C)c(OCC(=O)N3CCOCC3)c(C)c2)cc(OC)c1OC` the Potency was inconclusive: 14.1 µM [inhibitor, single point].
For `Cc1cnc(NC(=O)Cc2ccc(Br)cc2)s1`, the Potency was “inactive”.
For `COc1ccc2c(c1)C(=O)/C(=C/C=C/c1ccccc1)CC2`, the Potency was “inactive”.
In the case of `COc1ccc(/C=C(/C(=O)Nc2ccccc2C(=O)N2CCCC2)c2ccccc2)cc1`, the Potency is reported as “inactive”.
In the case of `COc1cccc(C2=CC(c3ccccc3)n3ncnc3N2)c1` (centres undefined), the Potency is reported as “inactive”.
With `COc1ccc(N2C(=O)NC3CC2(C)Oc2ccccc23)cc1OC` (centres undefined) the Potency was “inactive”.
In the case of `CN(c1cccc(NC(=O)c2ccc(Cl)c(S(=O)(=O)N3CCOCC3)c2)c1)S(C)(=O)=O`, the Potency is reported as inconclusive: 35.5 µM [inhibitor, single point].
In the case of `COc1ccccc1CN(C)C(=O)C1(c2ccc(Cl)cc2)CC1`, the Potency is reported as inconclusive: 0.316 µM [activator, partial curve, poor fit].
For `COc1ccc(-n2cc(CN(C)C(C)c3ccncn3)c(-c3cccc(F)c3)n2)cc1` (centres undefined), the Potency was inconclusive: 14.1 µM [inhibitor, single point].
With `NC(=O)c1ccsc1NC(=O)CSc1n[nH]c(N)n1` the Potency was inconclusive: 35.5 µM [inhibitor, single point].
With `Cc1ccc(N(CC(=O)NCc2ccc(F)cc2)C(=O)CCC(=O)Nc2ccccn2)cc1C` the Potency was inconclusive: 2.82 µM [inhibitor, full curve, poor fit].
In the case of `COc1ccc(CCNC(=O)c2ccc(Cl)cc2Cl)cc1`, the Potency is reported as inconclusive: 1.83 µM [inhibitor, partial curve, poor fit].
With `Cc1ccc(C(=O)C2CCN(S(=O)(=O)c3ccccc3C(=O)O)CC2)cc1` the Potency was inconclusive: 6.31 µM [activator, single point].
For `Cc1nn2c(=O)cc(COC(=O)c3ccc(S(=O)(=O)N4CCCCC4)cc3)nc2s1`, the Potency was “inactive”.
For `COc1cc(C2Oc3nc(SC)nnc3-c3ccccc3N2C(C)=O)cc(Cl)c1OC` (centres undefined), the Potency was “inactive”.
With `O=C(Cc1cccs1)NC1(C(=O)NC2CCCC2)CCCCC1` the Potency was inconclusive: 3.55 µM [inhibitor, single point].
In the case of `COc1ccc(C(=O)OCCN2CCCCC2)cc1`, the Potency is reported as inconclusive: 35.5 µM [activator, single point].
In the case of `CCOc1cccc(N2C(=O)CC(N3CCN(c4nc5ccccc5s4)CC3)C2=O)c1` (centres undefined), the Potency is reported as “inactive”.
For `COc1ccc(CCn2c(O)c(C=Nc3cccc(F)c3)c(=O)[nH]c2=O)cc1OC`, the Potency was inconclusive: 35.5 µM [inhibitor, partial curve, poor fit].
In the case of `CCC1(c2ccccc2)NC(=O)N(CC(=O)Nc2ccc(S(=O)(=O)N3CC(C)CC(C)C3)cc2)C1=O` (centres undefined), the Potency is reported as inconclusive: 14.1 µM [inhibitor, single point].
